PubChem BioAssay AID504793 – Drosophila RNAi Screening Center, 2011

Aim: 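Whole-genome screen for parts of the DNA damage checkpoint at G2/M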 (primary screen)
Cells: Drosophila S2R+ cells
Reagents: long dsRNA against Drosophila genes, about 0.25 µg dsRNA per well
Timing: 4 days of dsRNA, then 4 hours of drug before read-out
Challenge: doxorubicin 0.5 µM for 4 hours to cause double-strand breaks, in cells also given a low, harmless dose of dsRNA against nbs to sensitise the assay
Detection: 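Mitotic index as the number of phospho-histone H3-positive cells in each well following doxorubicin, given as raw counts without normalisation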
Reading the numbers: mitotic cells: higher = more cells in mitosis, weaker G2 arrest
Active means: 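Genes are called active only when high mitotic counts were reproduced with independent dsRNAs and mitosis was checked for delay without damage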
Meaning of the calls: active = confirmed in follow-up tests; inactive = not confirmed
The screen tested about 23,000 reagents; shown is an unselected part of those with a known target gene and a result. In the full data, 62 (0.27%) were called active. 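Calls come from follow-up tests whose scores are not deposited, so confirmed genes may have low counts here; counts are not normalised per plate.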 Raw values vary from plate to plate and are shown uncorrected. Names joined by + are all predicted targets of the reagent. No sequences are given here.

| target | amplicon | mitotic cells, replicate 1 | mitotic cells, replicate 2 | outcome |
| --- | --- | --- | --- | --- |
| CG6180 | DRSC02937 | 2 | – | inactive |
| CG6180 | DRSC25726 | 6 | – | inactive |
| CG12948 | DRSC14576 | 5 | – | inactive |
| CG12948 | DRSC27910 | 6 | – | inactive |
| Cog6 | DRSC06806 | 8 | – | inactive |
| Cog6 | DRSC29566 | 10 | – | inactive |
| toe | DRSC09174 | 17 | – | inactive |
| lush | DRSC11364 | 12 | – | inactive |
| CG16972 | DRSC02550 | 2 | – | inactive |
| CG13616 | DRSC14619 | 8 | – | inactive |
| CG4820 | DRSC15654 | 6 | – | inactive |
| arm | DRSC18738 | 5 | – | inactive |
| arm | DRSC39139 | 9 | – | inactive |
| mthl14 | DRSC07865 | 10 | – | inactive |
| CG4151 | DRSC18351 | 10 | – | inactive |
| Ankrd49 | DRSC01894 | 9 | – | inactive |
| Ankrd49 | DRSC29117 | 7 | – | inactive |
| roq | DRSC10227 | 7 | – | inactive |
| if | DRSC20341 | 10 | – | inactive |
| qtc | DRSC02364 | 12 | – | inactive |
| qtc | DRSC02365 | 4 | – | inactive |
| qtc | DRSC27377 | 3 | – | inactive |
| CG14631 | DRSC17792 | 7 | – | inactive |
| CG14631 | DRSC17941 | 16 | – | inactive |
| Dlc90F | DRSC16649 | 7 | – | inactive |
| ken | DRSC23196 | 5 | – | inactive |
| Incenp | DRSC06116 | 6 | – | inactive |
| Incenp | DRSC21950 | 7 | – | inactive |
| Incenp | DRSC28036 | – | – | inactive |
| CG15225 | DRSC23269 | 13 | – | inactive |
| CG15225 | DRSC29370 | 4 | – | inactive |
| Pex11c | DRSC14677 | 10 | – | inactive |
| Cp16 | DRSC11119 | 8 | – | inactive |
| Cp16 | DRSC25549 | 4 | – | inactive |
| sona | DRSC04089 | 3 | – | inactive |
| sona | DRSC04574 | 5 | – | inactive |
| sona | DRSC04575 | 5 | – | inactive |
| Bgb | DRSC08148 | 7 | – | inactive |
| Bgb | DRSC25855 | 2 | – | inactive |
| CG11474 | DRSC04112 | 3 | – | inactive |
| CG4789 | DRSC19918 | 15 | – | inactive |
| CG3358 | DRSC04992 | 4 | – | inactive |
| rost | DRSC03603 | 5 | – | inactive |
| rost | DRSC28296 | 7 | – | inactive |
| Nubp2 | DRSC11758 | 11 | – | inactive |
| Adck5 | DRSC10890 | 6 | – | inactive |
| EloA | DRSC16109 | 11 | – | inactive |
| EloA | DRSC23920 | 4 | – | inactive |
| CG10814 | DRSC06004 | 5 | – | inactive |
| nAChRalpha1 | DRSC13664 | 10 | – | inactive |
| nAChRalpha1 | DRSC13670 | 4 | – | inactive |
| nAChRalpha1 | DRSC13672 | 47 | – | inactive |
| nAChRalpha1 | DRSC17008 | 10 | – | inactive |
| CG31697 | DRSC22273 | 4 | – | inactive |
| CG17562 | DRSC15243 | 4 | – | inactive |
| CCAP-R | DRSC14891 | 9 | – | inactive |
| CCAP-R | DRSC15967 | 8 | – | inactive |
| CCAP-R | DRSC29494 | 6 | – | inactive |
| CG14715 | DRSC14938 | 7 | – | inactive |
| CG16772 | DRSC02516 | 3 | – | inactive |
| CG16772 | DRSC25947 | 4 | – | inactive |
| Ance-3 | DRSC02648 | 8 | – | inactive |
| Ance-3 | DRSC02649 | 7 | – | inactive |
| tau | DRSC23046 | 7 | – | inactive |
| CG32102 | DRSC22015 | 11 | – | inactive |
| CG32485 | DRSC22666 | 15 | – | inactive |
| Zn72D | DRSC11318 | 4 | – | inactive |
| Uros1 | DRSC18191 | 5 | – | inactive |
| Uros1 | DRSC29316 | 5 | – | inactive |
| RabX5 | DRSC08608 | 10 | – | inactive |
| RabX5 | DRSC28950 | 8 | – | inactive |
| CG31913 | DRSC00892 | 1 | – | inactive |
| CG31913 | DRSC27532 | 5 | – | inactive |
| mRpS17 | DRSC04463 | 2 | – | inactive |
| Or92a | DRSC16771 | 5 | – | inactive |
| Nmdar1 | DRSC12071 | 3 | – | inactive |
| Nmdar1 | DRSC12356 | 2 | – | inactive |
| Nmdar1 | DRSC24657 | 4 | – | inactive |
| CG1231 | DRSC08267 | 4 | – | inactive |
| CG1231 | DRSC27231 | 7 | – | inactive |
| wuho | DRSC18101 | 13 | – | inactive |
| wuho | DRSC27950 | 8 | – | inactive |
| CG42784 | DRSC02534 | 3 | – | inactive |
| CG42784 | DRSC22804 | 15 | – | inactive |
| CG42784 | DRSC23000 | 14 | – | inactive |
| CG42784 | DRSC25815 | 4 | – | inactive |
| CG42784 | DRSC29731 | 7 | – | inactive |
| CG12914 | DRSC06229 | 4 | – | inactive |
| CG17493 | DRSC03798 | 6 | – | inactive |
| Ir94d | DRSC21568 | 11 | – | inactive |
| CG13121 (retired record) | DRSC02217 | 9 | – | inactive |
| Sbds | DRSC10992 | 7 | – | inactive |
| moody | DRSC18515 | 8 | – | inactive |
| ics | DRSC01878 | 2 | – | inactive |
| ics | DRSC29655 | 7 | – | inactive |
| ric8b + ric8a | DRSC18104 | 8 | – | inactive |
| grnd | DRSC02020 | 1 | – | inactive |
| CG1677 | DRSC18116 | 19 | – | inactive |
| Fancl | DRSC14550 | 3 | – | inactive |
| prd1 | DRSC15227 | 4 | – | inactive |
| futsch | DRSC17688 | 6 | – | inactive |
| futsch | DRSC17949 | 8 | 9 | inactive |
| futsch | DRSC17952 | 3 | – | inactive |
| futsch | DRSC18543 | 17 | – | inactive |
| futsch | DRSC26427 | 7 | – | inactive |
| CG12643 | DRSC17849 | 10 | – | inactive |
| CG12643 | DRSC24898 | 6 | – | inactive |
| CG13712 | DRSC08321 | 6 | – | inactive |
| CG15699 (retired record) | DRSC06571 | 5 | – | inactive |
| Nrg | DRSC17573 | 5 | – | inactive |
| Nrg | DRSC18688 | 4 | – | inactive |
| Nrg | DRSC27797 | 5 | – | inactive |

As entered above.
For “outcome”, ken [DRSC23196] reads inactive
Under “mitotic cells, replicate 1”, nAChRalpha1 [DRSC13670] reads 4
Value of Ankrd49 [DRSC01894] in “outcome”: inactive
Cp16 [DRSC25549], outcome → inactive
CG15699 (retired record) [DRSC06571], outcome → inactive
For “mitotic cells, replicate 1”, sona [DRSC04089] has 3
